Experimental data as given in US7390635 (CANCER RESEARCH INSTITUTE OF CONTRA COSTA, dated 2008).
These are yes or no findings as the source states them, for the method shown. Some entries that bind do so weakly or less than the wild type.

What was measured:
[1] = target: T1, BA46 antigen of the human milk fat globule (HMFG) (human) (UniProt Q08431); experiment: supernatants assayed on a plate-bound HMFG preparation
T1 sequence (looked up): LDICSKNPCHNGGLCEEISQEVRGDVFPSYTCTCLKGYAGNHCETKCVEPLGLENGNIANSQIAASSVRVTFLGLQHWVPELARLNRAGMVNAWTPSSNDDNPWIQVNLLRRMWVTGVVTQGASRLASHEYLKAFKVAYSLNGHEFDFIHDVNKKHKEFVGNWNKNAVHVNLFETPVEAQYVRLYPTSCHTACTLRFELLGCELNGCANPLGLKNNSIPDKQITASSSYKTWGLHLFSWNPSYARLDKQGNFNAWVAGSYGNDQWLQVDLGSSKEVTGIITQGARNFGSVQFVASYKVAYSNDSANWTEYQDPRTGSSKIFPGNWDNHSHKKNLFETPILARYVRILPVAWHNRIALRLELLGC

[2] = target: T1, BA46 antigen of the human milk fat globule (HMFG) (human); experiment: competition RIA on plate-bound HMFG; competitor 125I-Mc3

binding [1]: binds | binding [2]: binds
B1: murine-human chimeric Mc3 antibody (ChMc3) (antibody, V domains shown)
VH: EVQLQQSGPELVKPGASMKISCEASGYSFTGYTMHWVKQSHGMNLEWIGLINPYNGGTVYNQKFQDKATLTVDKSSGTAYMELLSLTSEDSAVYFCARRWRYTMDYWGQGTSVTVSS
VL: DIVMTQSHKFMSTSEGDWVSITCKASQDVSIGVAWYQQKPGQSPKLLIYSASSRYTGVPDRFSGSGSGTDFTFTISSVQAEDLAVYYCQQHYTSPFTFGSGTNLEIK
notes: also called Chimeric antibody
